In the supplement of paper PMC6411743:
± gives the standard deviation of the averaged measurements. This is a selection; strong and weak results do not stand in their true shares.

Chains of the proteins cited; added tags and fusions are not shown. Lines headed by an entry give the natural chain unless they say otherwise; changes in a name come on top.
UniProt Q96GJ1: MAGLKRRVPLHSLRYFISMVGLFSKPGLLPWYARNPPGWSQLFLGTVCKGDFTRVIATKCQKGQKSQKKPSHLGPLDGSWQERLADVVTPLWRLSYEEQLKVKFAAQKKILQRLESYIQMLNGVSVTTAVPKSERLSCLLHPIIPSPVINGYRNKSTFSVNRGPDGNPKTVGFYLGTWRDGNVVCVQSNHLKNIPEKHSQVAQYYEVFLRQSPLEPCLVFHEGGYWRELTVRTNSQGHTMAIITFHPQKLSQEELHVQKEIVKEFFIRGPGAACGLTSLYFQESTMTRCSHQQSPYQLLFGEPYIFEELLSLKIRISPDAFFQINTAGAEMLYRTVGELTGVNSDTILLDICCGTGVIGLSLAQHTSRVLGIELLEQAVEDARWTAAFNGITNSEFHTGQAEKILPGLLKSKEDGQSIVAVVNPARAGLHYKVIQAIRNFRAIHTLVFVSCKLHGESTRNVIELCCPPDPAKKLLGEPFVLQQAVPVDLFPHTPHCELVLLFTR
UniProt Q96JM7: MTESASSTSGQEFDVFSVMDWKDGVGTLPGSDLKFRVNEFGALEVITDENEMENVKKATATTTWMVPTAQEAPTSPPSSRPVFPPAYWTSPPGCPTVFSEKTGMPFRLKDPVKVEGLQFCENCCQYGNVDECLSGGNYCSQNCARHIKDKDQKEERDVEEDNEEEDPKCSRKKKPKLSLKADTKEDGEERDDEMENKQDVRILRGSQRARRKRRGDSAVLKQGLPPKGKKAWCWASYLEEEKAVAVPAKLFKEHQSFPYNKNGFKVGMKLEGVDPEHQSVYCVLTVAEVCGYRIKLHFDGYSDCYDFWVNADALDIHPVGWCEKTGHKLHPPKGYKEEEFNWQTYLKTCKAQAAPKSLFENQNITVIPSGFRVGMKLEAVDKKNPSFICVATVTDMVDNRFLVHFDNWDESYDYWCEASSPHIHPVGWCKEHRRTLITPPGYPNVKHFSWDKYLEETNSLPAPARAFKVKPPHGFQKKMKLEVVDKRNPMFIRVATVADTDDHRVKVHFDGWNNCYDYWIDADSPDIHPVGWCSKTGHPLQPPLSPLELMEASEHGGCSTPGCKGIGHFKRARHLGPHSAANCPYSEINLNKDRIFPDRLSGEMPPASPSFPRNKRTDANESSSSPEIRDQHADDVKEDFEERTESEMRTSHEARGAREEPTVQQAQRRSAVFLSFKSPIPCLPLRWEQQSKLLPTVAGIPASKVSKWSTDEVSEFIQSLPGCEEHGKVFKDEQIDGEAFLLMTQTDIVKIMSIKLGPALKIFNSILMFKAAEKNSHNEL
UniProt Q96AG3: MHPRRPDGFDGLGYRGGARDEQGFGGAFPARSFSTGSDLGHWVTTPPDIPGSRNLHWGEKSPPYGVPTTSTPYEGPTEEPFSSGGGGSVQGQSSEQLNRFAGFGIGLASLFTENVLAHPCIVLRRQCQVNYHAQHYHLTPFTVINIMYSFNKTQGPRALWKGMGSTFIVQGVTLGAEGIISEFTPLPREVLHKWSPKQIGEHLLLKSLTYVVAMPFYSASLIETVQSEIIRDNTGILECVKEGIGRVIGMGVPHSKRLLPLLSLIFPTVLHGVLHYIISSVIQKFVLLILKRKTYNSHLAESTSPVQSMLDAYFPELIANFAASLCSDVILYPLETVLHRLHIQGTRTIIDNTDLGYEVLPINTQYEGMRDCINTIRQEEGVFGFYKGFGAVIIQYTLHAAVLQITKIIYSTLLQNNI
UniProt Q96JB5: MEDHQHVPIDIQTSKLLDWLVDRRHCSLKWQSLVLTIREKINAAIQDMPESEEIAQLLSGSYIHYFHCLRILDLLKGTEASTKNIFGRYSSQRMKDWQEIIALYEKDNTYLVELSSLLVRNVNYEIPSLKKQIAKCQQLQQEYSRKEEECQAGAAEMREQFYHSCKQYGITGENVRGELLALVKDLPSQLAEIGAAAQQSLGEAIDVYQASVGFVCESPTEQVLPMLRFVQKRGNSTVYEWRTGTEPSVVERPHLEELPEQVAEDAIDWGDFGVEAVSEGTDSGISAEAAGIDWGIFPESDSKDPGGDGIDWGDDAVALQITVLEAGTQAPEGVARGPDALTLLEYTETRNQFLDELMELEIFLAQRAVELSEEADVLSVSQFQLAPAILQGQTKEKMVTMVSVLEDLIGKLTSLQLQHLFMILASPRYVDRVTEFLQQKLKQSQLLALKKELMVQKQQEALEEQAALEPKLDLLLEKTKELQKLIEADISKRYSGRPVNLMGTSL
UniProt Q969Q5: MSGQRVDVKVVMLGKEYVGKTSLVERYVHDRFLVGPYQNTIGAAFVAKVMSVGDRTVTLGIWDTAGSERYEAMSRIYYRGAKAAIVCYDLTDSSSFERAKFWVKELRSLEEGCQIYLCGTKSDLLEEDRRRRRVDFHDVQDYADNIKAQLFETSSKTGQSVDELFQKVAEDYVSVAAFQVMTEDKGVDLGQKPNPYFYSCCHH
UniProt Q96DZ1: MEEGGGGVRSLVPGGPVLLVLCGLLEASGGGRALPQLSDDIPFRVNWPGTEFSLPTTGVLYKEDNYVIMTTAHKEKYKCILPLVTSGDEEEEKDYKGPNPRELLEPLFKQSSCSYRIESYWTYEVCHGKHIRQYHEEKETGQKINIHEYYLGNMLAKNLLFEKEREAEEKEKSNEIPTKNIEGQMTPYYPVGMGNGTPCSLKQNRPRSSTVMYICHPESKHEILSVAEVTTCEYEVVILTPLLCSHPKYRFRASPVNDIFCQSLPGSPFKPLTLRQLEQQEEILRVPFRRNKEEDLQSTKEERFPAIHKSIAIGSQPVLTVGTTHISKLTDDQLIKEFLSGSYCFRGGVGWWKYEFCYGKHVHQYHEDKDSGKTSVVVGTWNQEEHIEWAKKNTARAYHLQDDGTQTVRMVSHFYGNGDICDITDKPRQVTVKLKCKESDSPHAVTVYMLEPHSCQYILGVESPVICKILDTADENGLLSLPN
UniProt Q96GW9: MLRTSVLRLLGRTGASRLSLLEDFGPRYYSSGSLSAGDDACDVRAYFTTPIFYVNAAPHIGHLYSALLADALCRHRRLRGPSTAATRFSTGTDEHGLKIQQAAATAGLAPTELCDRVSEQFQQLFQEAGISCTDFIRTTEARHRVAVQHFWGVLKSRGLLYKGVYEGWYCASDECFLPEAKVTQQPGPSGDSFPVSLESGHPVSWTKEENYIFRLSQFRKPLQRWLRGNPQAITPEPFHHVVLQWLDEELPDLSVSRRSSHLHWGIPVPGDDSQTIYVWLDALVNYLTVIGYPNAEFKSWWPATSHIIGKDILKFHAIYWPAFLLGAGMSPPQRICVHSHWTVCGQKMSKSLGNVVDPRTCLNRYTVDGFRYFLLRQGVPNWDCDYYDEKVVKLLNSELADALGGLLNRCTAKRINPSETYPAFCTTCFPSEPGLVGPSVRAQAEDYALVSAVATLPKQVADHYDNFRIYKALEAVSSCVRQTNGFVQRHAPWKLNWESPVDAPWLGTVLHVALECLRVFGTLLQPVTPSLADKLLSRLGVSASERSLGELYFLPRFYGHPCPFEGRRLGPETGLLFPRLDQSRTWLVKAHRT
UniProt Q96IU4: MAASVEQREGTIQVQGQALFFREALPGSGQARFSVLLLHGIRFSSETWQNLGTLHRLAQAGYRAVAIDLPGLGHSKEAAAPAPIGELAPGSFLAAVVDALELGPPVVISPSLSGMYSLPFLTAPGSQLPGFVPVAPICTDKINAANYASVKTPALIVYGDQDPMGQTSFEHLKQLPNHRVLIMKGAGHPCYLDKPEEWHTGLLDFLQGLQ
UniProt Q96CP6, whole entry: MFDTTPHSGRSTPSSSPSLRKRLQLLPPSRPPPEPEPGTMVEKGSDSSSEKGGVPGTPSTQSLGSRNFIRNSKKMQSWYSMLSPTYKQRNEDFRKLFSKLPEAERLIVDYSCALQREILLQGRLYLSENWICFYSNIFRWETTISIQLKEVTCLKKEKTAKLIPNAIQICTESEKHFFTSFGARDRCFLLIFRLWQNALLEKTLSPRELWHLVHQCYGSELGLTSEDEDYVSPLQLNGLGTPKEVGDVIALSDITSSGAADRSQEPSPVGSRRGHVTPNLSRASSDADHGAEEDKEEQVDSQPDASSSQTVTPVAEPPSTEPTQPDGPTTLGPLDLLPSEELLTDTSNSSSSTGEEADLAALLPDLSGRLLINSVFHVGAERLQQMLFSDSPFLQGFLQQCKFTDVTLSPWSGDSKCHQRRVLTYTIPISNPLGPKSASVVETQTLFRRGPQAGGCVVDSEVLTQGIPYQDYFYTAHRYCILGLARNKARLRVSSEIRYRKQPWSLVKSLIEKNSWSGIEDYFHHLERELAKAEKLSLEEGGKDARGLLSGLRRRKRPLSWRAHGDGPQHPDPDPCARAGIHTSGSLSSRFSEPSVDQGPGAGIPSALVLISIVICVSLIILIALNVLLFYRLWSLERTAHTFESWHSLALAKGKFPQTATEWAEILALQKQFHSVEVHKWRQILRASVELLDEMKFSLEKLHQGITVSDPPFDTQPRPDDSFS
UniProt Q92974: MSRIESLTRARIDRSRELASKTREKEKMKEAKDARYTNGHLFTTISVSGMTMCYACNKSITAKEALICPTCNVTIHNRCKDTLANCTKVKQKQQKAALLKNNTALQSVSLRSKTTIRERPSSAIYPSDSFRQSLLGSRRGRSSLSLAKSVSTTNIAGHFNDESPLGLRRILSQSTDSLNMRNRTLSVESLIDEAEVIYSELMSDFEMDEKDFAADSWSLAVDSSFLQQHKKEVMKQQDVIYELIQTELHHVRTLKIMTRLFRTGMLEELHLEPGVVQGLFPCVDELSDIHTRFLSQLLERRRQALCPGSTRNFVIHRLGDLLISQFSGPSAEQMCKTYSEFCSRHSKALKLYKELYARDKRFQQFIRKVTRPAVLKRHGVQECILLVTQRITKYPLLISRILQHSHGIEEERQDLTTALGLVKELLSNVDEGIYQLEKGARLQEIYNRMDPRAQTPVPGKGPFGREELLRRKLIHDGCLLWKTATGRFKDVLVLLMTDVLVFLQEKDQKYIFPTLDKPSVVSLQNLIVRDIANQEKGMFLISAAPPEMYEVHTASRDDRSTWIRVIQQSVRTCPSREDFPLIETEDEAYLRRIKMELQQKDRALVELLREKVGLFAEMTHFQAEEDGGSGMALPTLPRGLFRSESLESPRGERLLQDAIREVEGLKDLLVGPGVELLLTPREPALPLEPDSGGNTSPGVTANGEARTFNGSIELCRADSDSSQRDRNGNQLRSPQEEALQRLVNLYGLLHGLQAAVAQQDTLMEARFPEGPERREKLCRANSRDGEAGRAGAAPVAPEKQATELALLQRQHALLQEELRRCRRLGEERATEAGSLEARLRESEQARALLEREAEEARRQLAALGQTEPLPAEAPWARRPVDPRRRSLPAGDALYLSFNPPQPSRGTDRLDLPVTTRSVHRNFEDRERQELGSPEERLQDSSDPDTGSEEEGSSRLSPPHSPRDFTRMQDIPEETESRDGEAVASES
UniProt Q96JM3: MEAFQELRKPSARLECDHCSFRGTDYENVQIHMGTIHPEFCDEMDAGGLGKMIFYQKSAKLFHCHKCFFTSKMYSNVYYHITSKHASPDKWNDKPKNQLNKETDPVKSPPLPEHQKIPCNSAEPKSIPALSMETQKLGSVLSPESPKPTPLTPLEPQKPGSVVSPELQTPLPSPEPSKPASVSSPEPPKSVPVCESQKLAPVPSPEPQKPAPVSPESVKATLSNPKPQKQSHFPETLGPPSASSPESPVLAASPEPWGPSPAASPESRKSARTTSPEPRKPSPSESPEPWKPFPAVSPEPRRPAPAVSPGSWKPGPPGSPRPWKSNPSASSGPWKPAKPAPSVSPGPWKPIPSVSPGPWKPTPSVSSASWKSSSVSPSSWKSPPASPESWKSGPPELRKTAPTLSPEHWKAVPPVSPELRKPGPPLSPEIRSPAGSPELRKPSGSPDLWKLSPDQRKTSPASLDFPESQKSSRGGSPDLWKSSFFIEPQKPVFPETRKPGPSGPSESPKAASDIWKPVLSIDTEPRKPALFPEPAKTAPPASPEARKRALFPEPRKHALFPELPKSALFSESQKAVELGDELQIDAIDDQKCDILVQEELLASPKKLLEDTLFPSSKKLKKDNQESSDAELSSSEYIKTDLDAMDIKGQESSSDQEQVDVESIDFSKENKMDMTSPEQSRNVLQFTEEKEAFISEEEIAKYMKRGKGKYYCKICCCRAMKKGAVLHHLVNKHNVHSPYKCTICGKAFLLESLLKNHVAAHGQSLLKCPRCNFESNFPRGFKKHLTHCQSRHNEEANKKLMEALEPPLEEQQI
UniProt Q96CT7: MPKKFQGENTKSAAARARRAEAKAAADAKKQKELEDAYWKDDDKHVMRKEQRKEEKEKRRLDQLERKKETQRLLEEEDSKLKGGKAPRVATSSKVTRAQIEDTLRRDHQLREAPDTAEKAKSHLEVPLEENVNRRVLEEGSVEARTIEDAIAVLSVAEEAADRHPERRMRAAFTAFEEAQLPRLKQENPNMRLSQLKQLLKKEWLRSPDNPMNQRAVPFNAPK

Compound: Nc1ncnc2c1ncn2[C@@H]1O[C@H](COP(=O)(O)OP(=O)(O)NP(=O)(O)O)[C@@H](O)[C@H]1O [adenylyl imidodiphosphate]
Test: NP40-soluble protein abundance relative to vehicle (solubility fold change) (ratio); higher = more soluble protein in presence of AMP-PNP
In short: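 Data come from three independent experiments in which Dounce-homogenised Jurkat crude lysate was treated at eight concentrations from 0.1 to 10 mM. Treatment ran 10 min at room temperature and then 3 min at 37 °C, after which 0.8% NP40 and benzonase were added for 60 min at 4 °C before ultracentrifugation. The supernatant underwent TMT labelling and LC-MS/MS, and vsn-normalised intensities were expressed as fold change against the detergent-processed vehicle in each replicate.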

Target | NP40-soluble protein abundance (concentration: 1mM) | NP40-soluble protein abundance (concentration: 2mM) | NP40-soluble protein abundance (concentration: 4mM) | NP40-soluble protein abundance (concentration: 6mM) | NP40-soluble protein abundance (concentration: 8mM) | NP40-soluble protein abundance (concentration: 10mM)
FUBP3 (UniProt Q96I24) | 1.01 ± 0.02 | 1.04 ± 0.029 | 0.996 ± 0.025 | 0.983 ± 0.014 | 0.9682 ± 0.0077 | 0.978 ± 0.02
UniProt Q96HD1 and related entries | 0.999 ± 0.026 | 1.04 ± 0.042 | 1.02 ± 0.032 | 1 ± 0.012 | 0.99 ± 0.048 | 1.01 ± 0.023
UniProt Q96GJ1 and related entries | 0.9408 ± 0.0071 | 0.944 ± 0.026 | 0.957 ± 0.024 | 0.9518 ± 0.0072 | 0.974 ± 0.024 | 0.949 ± 0.053
UniProt Q96JM7 and related entries | 0.998 ± 0.037 | 1.02 ± 0.049 | 1.04 ± 0.011 | 1 ± 0.013 | 0.9861 ± 0.00078 | 0.965 ± 0.017
UniProt Q96AG3 and related entries | 0.995 ± 0.024 | 0.9971 ± 0.0097 | 0.99 ± 0.035 | 1 ± 0.023 | 0.991 ± 0.041 | 1.018 ± 0.0096
CDK5RAP3 (UniProt Q96JB5) | 1 ± 0.034 | 0.992 ± 0.014 | 0.994 ± 0.12 | 0.977 ± 0.096 | 1.05 ± 0.036 | 1.04 ± 0.04
RAB24 (UniProt Q969Q5) | 0.996 ± 0.014 | 0.977 ± 0.019 | 0.998 ± 0.057 | 0.98 ± 0.035 | 0.998 ± 0.033 | 0.978 ± 0.05
UniProt Q96DZ1 | 0.966 ± 0.015 | 0.967 ± 0.057 | 0.952 ± 0.028 | 0.946 ± 0.034 | 0.928 ± 0.036 | 0.95 ± 0.054
UniProt Q96PU8 and related entries | 0.996 ± 0.058 | 1.02 ± 0.051 | 0.978 ± 0.064 | 0.926 ± 0.019 | 0.933 ± 0.05 | 0.893 ± 0.032
PTCD3 (UniProt Q96EY7) | 0.98 ± 0.066 | 0.958 ± 0.062 | 0.934 ± 0.12 | 0.928 ± 0.12 | 0.936 ± 0.12 | 0.941 ± 0.18
EAF1 (UniProt Q96JC9) | 1.02 ± 0.031 | 1.06 ± 0.081 | 1.03 ± 0.02 | 1.05 ± 0.04 | 1.03 ± 0.047 | 1.04 ± 0.074
MARS2 (UniProt Q96GW9) | 0.993 ± 0.04 | 0.976 ± 0.036 | 1 ± 0.022 | 0.987 ± 0.031 | 0.991 ± 0.045 | 0.965 ± 0.036
ABHD14B (UniProt Q96IU4) | 0.9947 ± 0.0093 | 0.98 ± 0.015 | 0.96 ± 0.011 | 0.967 ± 0.025 | 0.97 ± 0.023 | 0.978 ± 0.033
UniProt Q96CP6 and related entries | 1.02 ± 0.031 | 1.02 ± 0.018 | 1.01 ± 0.032 | 1.02 ± 0.048 | 1.018 ± 0.0049 | 1.01 ± 0.053
UniProt Q92974 and related entries | 0.989 ± 0.015 | 0.964 ± 0.041 | 0.9747 ± 0.0076 | 0.942 ± 0.02 | 0.951 ± 0.01 | 0.945 ± 0.027
UniProt Q96JM3 | 1.07 ± 0.044 | 1.16 ± 0.039 | 1.16 ± 0.014 | 1.21 ± 0.069 | 1.23 ± 0.057 | 1.29 ± 0.037
CCDC124 (UniProt Q96CT7) | 1.13 ± 0.037 | 1.29 ± 0.15 | 1.35 ± 0.058 | 1.58 ± 0.12 | 1.86 ± 0.17 | 2.16 ± 0.25

A few values from the list:
UniProt Q96CP6 and related entries – NP40-soluble protein abundance (concentration: 6mM): 1.02 ± 0.048
UniProt Q96GJ1 and related entries – NP40-soluble protein abundance (concentration: 10mM): 0.949 ± 0.053
